Data as given in PubChem BioAssay AID1508588 (Peter MacCallum Cancer Centre, 2020)

Assay: 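Knock-downs boosting vemurafenib effects on melanoma cell growth or lactate release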 (primary screen)
Cells: human WM266.4 melanoma cells (BRAF V600 mutant)
Reagent: siRNA pool against human genes, 40 nM
Time to read-out: 96 h from transfection to read-out
Challenge: vemurafenib 300 nM (about IC25), added 48 h after transfection, for 48 h; comparison arm got DMSO vehicle only
Read-out: 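Cell gain (DAPI nuclei at end minus before drug, mean of two replicates) and medium lactate by absorbance per cell, both as ratio to non-targeting siRNA, also grouped into fold-change classes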
Scale: cell gain with vemurafenib: higher = more cell gain than with non-targeting siRNA; lactate per cell with vemurafenib: higher = more lactate made per cell
Rule for the call: 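a knock-down counts as enhancing when its fold-change classes with vehicle and with vemurafenib, taken together, show a stronger drug effect on cell gain or lactate per cell; exact class pairs not stated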
Meaning of the calls: active = enhances vemurafenib effect; inactive = no enhancement seen
In all, the deposit lists about 18,000 reagents; this is a random part of them. 790 of all reagents (4.4%) were called active. 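Calls rest on a combination of fold-change classes in drug and vehicle arms, not all shown here.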 Entries without a mark were called inactive. Some reagents were tested in more than one well and are listed for each.

What is on record for PLEKHB2?
cell gain with vemurafenib: 0.91; lactate per cell with vemurafenib: 0.66

With CA9, what was measured?
cell gain with vemurafenib: 0.87; lactate per cell with vemurafenib: 0.68

What is on record for CKMT1B?
cell gain with vemurafenib: 0.79; lactate per cell with vemurafenib: 1.12

For RHOH, how do the results read?
cell gain with vemurafenib: 0.42; lactate per cell with vemurafenib: 1.01

How did the screen score KRCC1?
cell gain with vemurafenib: 0.84; lactate per cell with vemurafenib: 0.58

What is on record for REG3A?
cell gain with vemurafenib: 0.61; lactate per cell with vemurafenib: 1.15

For ADAD2, how do the results read?
cell gain with vemurafenib: 0.53; lactate per cell with vemurafenib: 1.02

What did the screen give for ZFP82?
cell gain with vemurafenib: 0.19; lactate per cell with vemurafenib: 2.16

With RAPGEF3, what does the deposit list?
cell gain with vemurafenib: 0.01; lactate per cell with vemurafenib: 0.57

What is on record for FAM163A?
cell gain with vemurafenib: 0.94; lactate per cell with vemurafenib: 0.53

For SMG8, what does the deposit list?
cell gain with vemurafenib: 0.52; lactate per cell with vemurafenib: 0.94

For RASL10B, what does the deposit list?
cell gain with vemurafenib: 0.77; lactate per cell with vemurafenib: 1.75

How did the screen score HPDL?
cell gain with vemurafenib: 0.52; lactate per cell with vemurafenib: 0.99

For CPSF6, what was measured?
cell gain with vemurafenib: 0.77; lactate per cell with vemurafenib: 1.49

What is on record for TBKBP1?
cell gain with vemurafenib: 0.63; lactate per cell with vemurafenib: 1.9

5 neighbouring records from above, quoted:
PLEKHB2 — cell gain with vemurafenib: 0.91; lactate per cell with vemurafenib: 0.66
CA9 — cell gain with vemurafenib: 0.87; lactate per cell with vemurafenib: 0.68
CKMT1B — cell gain with vemurafenib: 0.79; lactate per cell with vemurafenib: 1.12
RHOH — cell gain with vemurafenib: 0.42; lactate per cell with vemurafenib: 1.01
KRCC1 — cell gain with vemurafenib: 0.84; lactate per cell with vemurafenib: 0.58

Further entries:
With ACER3, what was measured?
cell gain with vemurafenib: 0.77; lactate per cell with vemurafenib: 0.58

With NUDT5, what does the deposit list?
cell gain with vemurafenib: 0.72; lactate per cell with vemurafenib: 1.07

What did the screen give for FLG2?
cell gain with vemurafenib: 0.08; lactate per cell with vemurafenib: 1.44

Which result is listed for ETV4?
cell gain with vemurafenib: 0.52; lactate per cell with vemurafenib: 0.97

For SNX22, what was measured?
cell gain with vemurafenib: 0.33; lactate per cell with vemurafenib: 1.63

What did the screen give for DDOST?
cell gain with vemurafenib: 0.87; lactate per cell with vemurafenib: 0.6

What did the screen give for SLC12A8?
cell gain with vemurafenib: 0.77; lactate per cell with vemurafenib: 0.9

For GK2, how do the results read?
cell gain with vemurafenib: 0.88; lactate per cell with vemurafenib: 0.96

With CACFD1, what does the deposit list?
cell gain with vemurafenib: 0.71; lactate per cell with vemurafenib: 0.6

For PLBD1, what was measured?
cell gain with vemurafenib: 0.63; lactate per cell with vemurafenib: 0.85

For RFNG, how do the results read?
cell gain with vemurafenib: 0.76; lactate per cell with vemurafenib: 0.98

For TOP2A, how do the results read?
cell gain with vemurafenib: 0.34; lactate per cell with vemurafenib: 1.05

How did the screen score BMPR1A?
cell gain with vemurafenib: 0.43; lactate per cell with vemurafenib: 1.33

How did the screen score SUZ12?
cell gain with vemurafenib: 0.19 (active); lactate per cell with vemurafenib: 0.4

With CSMD3, how do the results read?
cell gain with vemurafenib: 0.97; lactate per cell with vemurafenib: 0.54

For DRP2, what does the deposit list?
cell gain with vemurafenib: 0.97; lactate per cell with vemurafenib: 0.86

Which result is listed for CST7?
cell gain with vemurafenib: 0.1; lactate per cell with vemurafenib: 1.25

For DUSP2, how do the results read?
cell gain with vemurafenib: 0.53; lactate per cell with vemurafenib: 0.77

For CAMKK1, what was measured?
cell gain with vemurafenib: 0.49; lactate per cell with vemurafenib: 1.52

What did the screen give for CAMKK1?
cell gain with vemurafenib: 0.31; lactate per cell with vemurafenib: 2.61

With LRGUK, how do the results read?
cell gain with vemurafenib: 0.31; lactate per cell with vemurafenib: 0.82

How did the screen score BDH1?
cell gain with vemurafenib: 1; lactate per cell with vemurafenib: 0.5

Which result is listed for ACVR1C?
cell gain with vemurafenib: 0.21; lactate per cell with vemurafenib: 0.85

With SPN, what does the deposit list?
cell gain with vemurafenib: 0.56; lactate per cell with vemurafenib: 0.97

For PARK7, what was measured?
cell gain with vemurafenib: 0.25; lactate per cell with vemurafenib: 3.08
